Assay [1] addresses T1, Fetuin-A (Alpha-2-HS-glycoprotein, mouse) (mouse (endogenous in M2-10B4, MC3T3-E1-derived OS, Balb/c tibia)) (UniProt P29699).
T1 sequence: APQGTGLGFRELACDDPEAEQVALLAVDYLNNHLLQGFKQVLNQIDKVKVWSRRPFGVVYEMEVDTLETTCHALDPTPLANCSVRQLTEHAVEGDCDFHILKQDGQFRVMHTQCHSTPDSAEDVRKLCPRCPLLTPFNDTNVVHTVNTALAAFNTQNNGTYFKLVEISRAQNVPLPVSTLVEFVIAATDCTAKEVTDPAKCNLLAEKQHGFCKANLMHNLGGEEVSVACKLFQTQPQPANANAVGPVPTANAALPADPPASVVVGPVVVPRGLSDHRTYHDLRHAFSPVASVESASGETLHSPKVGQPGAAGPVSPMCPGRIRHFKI
The assay can be described thus: proximity ligation; Duolink in situ on mouse tibial bone tissue (Balb/c), fixed in PFA; DAPI for the cells; negative control: one antibody omitted.

Assay [2] addresses T1, Fetuin-A (Alpha-2-HS-glycoprotein, mouse) (mouse (endogenous in M2-10B4, MC3T3-E1-derived OS, Balb/c tibia)). The assay can be described thus: condition: only natural growth of M2-10B4 without osteo-induction, T0 to T15; proximity ligation; Duolink in situ on M2-10B4 and L88/5 cells during natural growth without osteo-induction, T0 to T15 (Figures S3C and S4C).
For assay [3] the target is unchanged. The assay can be described thus: proximity ligation; Duolink in situ on cultured cells fixed in PFA (M2-10B4, OS, primary ADMSC, CBMSC, BMMSC), anti-FGF23 and anti-Alpha-2-HS-glycoprotein overnight at 4 °C, PLUS/MINUS PLA probes; at T0 and during osteogenic induction up to T10; negative control: one antibody omitted.
For assay [4], the target named is T2, Fetuin-A (Alpha-2-HS-glycoprotein, human) (human (endogenous in primary ADMSC, CBMSC, BMMSC and L88/5)) (UniProt P02765).
T2 sequence: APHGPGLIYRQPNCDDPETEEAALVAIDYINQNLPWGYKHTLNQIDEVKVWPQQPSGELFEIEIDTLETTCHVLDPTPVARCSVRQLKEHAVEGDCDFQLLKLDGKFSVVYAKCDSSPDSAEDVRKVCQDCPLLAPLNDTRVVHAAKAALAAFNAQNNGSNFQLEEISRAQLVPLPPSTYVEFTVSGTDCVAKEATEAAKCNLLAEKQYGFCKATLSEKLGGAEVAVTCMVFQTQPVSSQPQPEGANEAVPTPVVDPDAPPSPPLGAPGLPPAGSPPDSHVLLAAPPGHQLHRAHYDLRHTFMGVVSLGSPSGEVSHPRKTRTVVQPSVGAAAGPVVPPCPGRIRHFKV
The assay can be described thus: condition: only natural growth of L88/5 without osteo-induction, T0 to T15; proximity ligation; Duolink in situ on M2-10B4 and L88/5 cells during natural growth without osteo-induction, T0 to T15 (Figures S3C and S4C).

In assay [5] the target is T2, Fetuin-A (Alpha-2-HS-glycoprotein, human) (human (endogenous in primary ADMSC, CBMSC, BMMSC and L88/5)). The assay can be described thus: proximity ligation; Duolink in situ on cultured cells fixed in PFA (M2-10B4, OS, primary ADMSC, CBMSC, BMMSC), anti-FGF23 and anti-Alpha-2-HS-glycoprotein overnight at 4 °C, PLUS/MINUS PLA probes; at T0 and during osteogenic induction up to T10; negative control: one antibody omitted.

No constants are given. Whether binding was seen depends on the method and setting. Binding seen in cells or lysates may run through a third protein. Some binding calls cover weakened binding; strength is not graded here.

B1: Fibroblast growth factor 23 (mouse) (protein, UniProt Q9EPC2 25-251)
chain: YPDTSPLLGSNWGSLTHLYTATARTSYHLQIHRDGHVDGTPHQTIYSALMITSEDAGSVVITGAMTRRFLCMDLHGNIFGSLHFSPENCKFRQWTLENGYDVYLSQKHHYLVSLGRAKRIFQPGTNPPPFSQFLARRNEVPLLHFYTVRPRRHTRSAEDPPERDPLNVLKPRPRATPVPVSCSRELPSAEEGGPAASDPLGVLRRGRGDARGGAGGADRCRPFPRFV
In the case of B1, the binding result is “binds” in assay [1], “no binding” in assay [2] and “binds” in assay [3].

B2: Fibroblast growth factor 23 (human) (protein, UniProt Q9GZV9 25-251)
chain: YPNASPLLGSSWGGLIHLYTATARNSYHLQIHKNGHVDGAPHQTIYSALMIRSEDAGFVVITGVMSRRYLCMDFRGNIFGSHYFDPENCRFQHQTLENGYDVYHSPQYHFLVSLGRAKRAFLPGMNPPPYSQFLSRRNEIPLIHFNTPIPRRHTRSAEDDSERDPLNVLKPRARMTPAPASCSQELPSAEDNSPMASDPLGVVRGGRVNTHAGGTGPEGCRPFAKFI
For the molecule B2, the binding result in assay [4] is given as “no binding”; in assay [5], “binds”.
